The target in assay [1] is N-terminal FLAG-tagged NMUR2 (human) (UniProt Q9GZQ4). Kind of assay: non-reducing and reducing SDS-PAGE with Western blot; extracts of 293T cells transfected with one FLAG-tagged receptor, extracted in mild conditions without boiling; non-reducing against reducing conditions; blot against the FLAG epitope; bands around 80 kDa and 40 kDa. (A western blot detects proteins with antibodies after separation by electrophoresis.)

Protein sequences, listed by entry. Tags and fused reporters are not part of them. Lines headed by an entry give the natural chain unless they say otherwise; changes in a name come on top. Residues count along the entry.
UniProt Q9GZQ4: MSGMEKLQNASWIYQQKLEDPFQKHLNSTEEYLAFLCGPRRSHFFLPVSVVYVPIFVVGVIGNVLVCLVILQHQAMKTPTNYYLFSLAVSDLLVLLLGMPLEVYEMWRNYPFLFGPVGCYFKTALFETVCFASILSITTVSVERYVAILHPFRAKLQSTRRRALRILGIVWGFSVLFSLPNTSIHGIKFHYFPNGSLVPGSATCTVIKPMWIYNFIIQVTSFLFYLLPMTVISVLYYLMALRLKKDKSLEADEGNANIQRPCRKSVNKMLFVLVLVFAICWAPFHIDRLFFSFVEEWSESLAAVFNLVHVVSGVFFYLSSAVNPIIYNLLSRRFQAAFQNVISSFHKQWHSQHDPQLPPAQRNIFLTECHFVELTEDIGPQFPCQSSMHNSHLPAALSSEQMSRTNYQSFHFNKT
UniProt Q9HB89, residues 17-426: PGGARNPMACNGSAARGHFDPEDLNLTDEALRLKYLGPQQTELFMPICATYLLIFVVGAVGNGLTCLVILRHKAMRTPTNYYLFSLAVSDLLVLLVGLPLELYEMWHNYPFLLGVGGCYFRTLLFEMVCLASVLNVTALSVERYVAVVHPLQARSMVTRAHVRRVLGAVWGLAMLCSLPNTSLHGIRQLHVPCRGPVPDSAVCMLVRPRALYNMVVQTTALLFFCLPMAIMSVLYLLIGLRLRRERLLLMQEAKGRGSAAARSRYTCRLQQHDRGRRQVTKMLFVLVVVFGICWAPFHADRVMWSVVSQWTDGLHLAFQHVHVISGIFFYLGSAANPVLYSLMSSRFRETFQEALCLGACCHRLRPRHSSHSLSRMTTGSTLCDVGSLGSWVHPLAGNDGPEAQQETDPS
UniProt P22888, residues 27-699: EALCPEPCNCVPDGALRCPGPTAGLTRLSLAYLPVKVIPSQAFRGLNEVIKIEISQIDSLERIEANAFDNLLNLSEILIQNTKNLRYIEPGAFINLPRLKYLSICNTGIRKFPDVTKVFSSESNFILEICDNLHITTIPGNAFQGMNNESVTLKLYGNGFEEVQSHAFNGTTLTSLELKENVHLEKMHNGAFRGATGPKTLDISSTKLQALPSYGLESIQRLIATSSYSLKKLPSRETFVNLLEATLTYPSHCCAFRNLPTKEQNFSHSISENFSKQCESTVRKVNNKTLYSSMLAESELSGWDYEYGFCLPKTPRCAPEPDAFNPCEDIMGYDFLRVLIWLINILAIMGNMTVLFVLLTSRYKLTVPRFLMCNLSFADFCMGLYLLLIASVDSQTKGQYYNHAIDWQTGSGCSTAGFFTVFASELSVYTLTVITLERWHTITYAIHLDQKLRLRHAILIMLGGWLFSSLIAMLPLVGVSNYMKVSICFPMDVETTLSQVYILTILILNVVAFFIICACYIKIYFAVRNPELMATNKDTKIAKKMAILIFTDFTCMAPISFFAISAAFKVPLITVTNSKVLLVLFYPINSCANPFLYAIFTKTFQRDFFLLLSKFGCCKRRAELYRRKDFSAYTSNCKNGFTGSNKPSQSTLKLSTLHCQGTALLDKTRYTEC

For assay [2], the target named is N-terminal FLAG-tagged NMUR1 (human) (UniProt Q9HB89). Described as above.
In assay [3] the target is GFP-NMUR2 (human) (UniProt Q9GZQ4). The assay is described as follows: FRET or BRET; acceptor photobleaching FRET by confocal microscopy; eGFP-tagged and DsRed-tagged receptors co-expressed in HEK-293T cells, fixed; DsRed bleached at 543 nm for 3 mins. Background: Bioluminescence resonance energy transfer reports proximity on the nanometre scale.

These are yes or no findings as the source states them, for the method shown. For part of these data: Binding seen in cells or lysates may run through a third protein. Some results given as binding are weak or reduced against the parent protein; the word gives no strength.

Data on three substances can be found in article PMC4552561.

“N-terminal FLAG-tagged NMUR2 (from UniProt Q9GZQ4 19-415) (receptor)”: the binding result in assay [1] is given as “binds”.
Take “N-terminal FLAG-tagged NMUR1 (from UniProt Q9HB89 17-426) (receptor)”: the binding result in assay [2] is given as “binds”.
For the substance “DsRed-luteinizing hormone receptor (from UniProt P22888 27-699)”, the binding result in assay [3] is listed as “no binding”.
